Patent US20190389841A1, “COMPOUNDS FOR TREATMENT OF TRIPLE NEGATIVE BREAST CANCER AND OVARIAN CANCER” (UNIVERSITY OF TENNESSEE RESEARCH FOUNDATION, priority 2018, published 2019)
Where two headings read alike, the source gives them in different places.

Tested on: MDA-MB-231
Assay: cells
Details: Homo sapiens

COc1cc2c(c(OC)c1OC)-c1ccc(OC)c(=O)cc1[C@@H](NC(C)=O)CC2 [colchicine] showed an IC50 (MDA-MB-231, read-out: IC50 (FIG. 37)) of 17.5 nM and an IC50 (MDA-MB-231, read-out: IC50, cell viability) of 17.5 nM.
